From the supplement of paper PMC12067093, “Discovery and optimisation of a covalent ligand for TRIM25 and its application to targeted protein ubiquitination” (Chemical Science, 2025)
The other results are listed elsewhere or left out.

Sequences of proteins named here, by UniProt entry; tags and fusion partners are left off. A change or cut given only in a name is not applied to a line headed by its entry.
UniProt P16591: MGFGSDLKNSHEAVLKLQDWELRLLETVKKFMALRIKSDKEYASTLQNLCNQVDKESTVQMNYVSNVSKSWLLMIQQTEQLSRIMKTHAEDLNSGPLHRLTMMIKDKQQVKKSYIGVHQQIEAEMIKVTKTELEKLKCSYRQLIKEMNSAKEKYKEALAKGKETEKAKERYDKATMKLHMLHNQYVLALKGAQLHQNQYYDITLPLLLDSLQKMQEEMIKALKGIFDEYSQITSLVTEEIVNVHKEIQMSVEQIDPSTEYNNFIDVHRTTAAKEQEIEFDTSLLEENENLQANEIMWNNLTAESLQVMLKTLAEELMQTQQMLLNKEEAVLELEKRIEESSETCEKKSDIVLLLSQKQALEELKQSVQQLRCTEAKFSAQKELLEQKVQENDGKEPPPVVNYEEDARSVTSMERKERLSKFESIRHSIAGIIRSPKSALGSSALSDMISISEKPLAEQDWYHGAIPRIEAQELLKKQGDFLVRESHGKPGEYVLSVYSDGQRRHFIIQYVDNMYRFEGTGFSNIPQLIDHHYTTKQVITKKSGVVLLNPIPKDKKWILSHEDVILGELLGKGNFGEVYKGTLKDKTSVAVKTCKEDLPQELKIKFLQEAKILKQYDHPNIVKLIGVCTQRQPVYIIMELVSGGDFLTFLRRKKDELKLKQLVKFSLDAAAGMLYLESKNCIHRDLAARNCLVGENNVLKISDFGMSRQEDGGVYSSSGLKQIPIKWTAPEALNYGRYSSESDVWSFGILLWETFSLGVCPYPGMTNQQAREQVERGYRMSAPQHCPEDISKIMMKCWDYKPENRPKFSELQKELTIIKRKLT
UniProt P49327, whole entry, looked up: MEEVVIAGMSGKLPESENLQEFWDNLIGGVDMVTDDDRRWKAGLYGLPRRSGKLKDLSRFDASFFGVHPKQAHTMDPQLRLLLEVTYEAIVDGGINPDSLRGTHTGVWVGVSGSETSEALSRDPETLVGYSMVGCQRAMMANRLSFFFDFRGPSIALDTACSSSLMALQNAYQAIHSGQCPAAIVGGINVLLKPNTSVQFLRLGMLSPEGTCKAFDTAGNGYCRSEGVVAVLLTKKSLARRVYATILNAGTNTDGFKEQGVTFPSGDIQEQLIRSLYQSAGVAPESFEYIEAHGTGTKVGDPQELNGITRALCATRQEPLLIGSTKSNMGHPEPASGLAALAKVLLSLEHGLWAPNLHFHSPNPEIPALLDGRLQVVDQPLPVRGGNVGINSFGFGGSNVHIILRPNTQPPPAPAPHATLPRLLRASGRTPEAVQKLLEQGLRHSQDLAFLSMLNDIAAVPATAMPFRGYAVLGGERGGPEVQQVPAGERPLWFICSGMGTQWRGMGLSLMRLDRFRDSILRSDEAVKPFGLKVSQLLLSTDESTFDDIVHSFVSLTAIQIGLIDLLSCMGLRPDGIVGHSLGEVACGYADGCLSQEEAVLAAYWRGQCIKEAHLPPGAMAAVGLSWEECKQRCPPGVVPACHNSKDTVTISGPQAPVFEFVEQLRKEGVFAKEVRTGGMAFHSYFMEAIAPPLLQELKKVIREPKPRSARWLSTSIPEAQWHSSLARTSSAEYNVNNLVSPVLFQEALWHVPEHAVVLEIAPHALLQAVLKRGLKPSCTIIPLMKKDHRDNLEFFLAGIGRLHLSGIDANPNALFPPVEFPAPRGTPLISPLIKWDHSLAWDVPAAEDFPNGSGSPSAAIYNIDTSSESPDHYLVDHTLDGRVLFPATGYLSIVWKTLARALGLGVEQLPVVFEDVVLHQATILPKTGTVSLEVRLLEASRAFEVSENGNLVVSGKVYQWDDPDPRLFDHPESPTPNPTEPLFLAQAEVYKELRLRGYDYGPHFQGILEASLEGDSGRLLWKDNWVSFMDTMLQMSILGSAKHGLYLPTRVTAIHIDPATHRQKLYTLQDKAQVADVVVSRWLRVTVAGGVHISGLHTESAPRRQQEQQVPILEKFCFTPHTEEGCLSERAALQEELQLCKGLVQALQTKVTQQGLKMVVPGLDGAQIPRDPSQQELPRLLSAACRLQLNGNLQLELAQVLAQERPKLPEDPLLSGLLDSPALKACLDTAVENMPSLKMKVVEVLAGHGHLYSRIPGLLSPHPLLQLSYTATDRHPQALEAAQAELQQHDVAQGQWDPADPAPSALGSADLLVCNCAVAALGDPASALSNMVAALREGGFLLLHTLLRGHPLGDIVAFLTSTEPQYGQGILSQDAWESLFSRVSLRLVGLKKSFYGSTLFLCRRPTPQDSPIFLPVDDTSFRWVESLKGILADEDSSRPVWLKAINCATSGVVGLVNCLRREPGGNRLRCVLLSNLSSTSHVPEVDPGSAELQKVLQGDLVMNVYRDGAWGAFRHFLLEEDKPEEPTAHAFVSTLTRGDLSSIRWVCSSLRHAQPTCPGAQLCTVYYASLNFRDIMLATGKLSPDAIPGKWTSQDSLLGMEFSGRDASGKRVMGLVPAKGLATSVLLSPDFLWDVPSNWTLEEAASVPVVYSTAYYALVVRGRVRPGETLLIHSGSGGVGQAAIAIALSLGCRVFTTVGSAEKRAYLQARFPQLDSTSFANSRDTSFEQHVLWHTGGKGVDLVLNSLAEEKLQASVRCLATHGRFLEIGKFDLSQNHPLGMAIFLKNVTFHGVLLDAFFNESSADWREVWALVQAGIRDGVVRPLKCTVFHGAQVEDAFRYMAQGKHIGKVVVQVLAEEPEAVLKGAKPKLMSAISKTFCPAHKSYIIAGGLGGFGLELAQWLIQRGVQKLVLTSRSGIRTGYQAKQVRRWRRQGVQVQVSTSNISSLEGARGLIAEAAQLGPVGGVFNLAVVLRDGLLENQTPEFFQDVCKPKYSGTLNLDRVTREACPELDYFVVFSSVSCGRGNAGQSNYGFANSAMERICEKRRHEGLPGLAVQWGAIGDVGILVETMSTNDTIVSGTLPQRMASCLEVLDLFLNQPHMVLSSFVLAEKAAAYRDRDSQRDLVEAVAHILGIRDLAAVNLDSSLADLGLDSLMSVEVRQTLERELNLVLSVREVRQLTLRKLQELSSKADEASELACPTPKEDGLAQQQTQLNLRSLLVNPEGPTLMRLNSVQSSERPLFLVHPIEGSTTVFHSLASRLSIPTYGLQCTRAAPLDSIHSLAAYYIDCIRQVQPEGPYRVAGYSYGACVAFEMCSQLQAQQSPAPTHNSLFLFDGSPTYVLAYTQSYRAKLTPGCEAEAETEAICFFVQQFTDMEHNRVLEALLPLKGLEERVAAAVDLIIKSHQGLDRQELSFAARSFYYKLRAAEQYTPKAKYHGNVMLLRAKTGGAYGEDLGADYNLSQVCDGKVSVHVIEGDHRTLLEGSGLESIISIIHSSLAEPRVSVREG
UniProt P22830: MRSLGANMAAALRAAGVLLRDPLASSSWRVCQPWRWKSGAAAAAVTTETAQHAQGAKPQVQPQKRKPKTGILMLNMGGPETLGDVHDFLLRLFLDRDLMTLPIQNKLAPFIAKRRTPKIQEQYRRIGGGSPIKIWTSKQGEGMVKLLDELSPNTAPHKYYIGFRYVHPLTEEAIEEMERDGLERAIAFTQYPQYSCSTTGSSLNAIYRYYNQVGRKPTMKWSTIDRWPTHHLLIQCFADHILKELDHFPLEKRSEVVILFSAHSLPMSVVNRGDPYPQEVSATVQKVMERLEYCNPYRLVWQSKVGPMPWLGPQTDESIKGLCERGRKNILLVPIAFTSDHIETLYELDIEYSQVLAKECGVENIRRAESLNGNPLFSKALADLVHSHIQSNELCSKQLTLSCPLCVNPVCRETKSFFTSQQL
UniProt Q8TB52: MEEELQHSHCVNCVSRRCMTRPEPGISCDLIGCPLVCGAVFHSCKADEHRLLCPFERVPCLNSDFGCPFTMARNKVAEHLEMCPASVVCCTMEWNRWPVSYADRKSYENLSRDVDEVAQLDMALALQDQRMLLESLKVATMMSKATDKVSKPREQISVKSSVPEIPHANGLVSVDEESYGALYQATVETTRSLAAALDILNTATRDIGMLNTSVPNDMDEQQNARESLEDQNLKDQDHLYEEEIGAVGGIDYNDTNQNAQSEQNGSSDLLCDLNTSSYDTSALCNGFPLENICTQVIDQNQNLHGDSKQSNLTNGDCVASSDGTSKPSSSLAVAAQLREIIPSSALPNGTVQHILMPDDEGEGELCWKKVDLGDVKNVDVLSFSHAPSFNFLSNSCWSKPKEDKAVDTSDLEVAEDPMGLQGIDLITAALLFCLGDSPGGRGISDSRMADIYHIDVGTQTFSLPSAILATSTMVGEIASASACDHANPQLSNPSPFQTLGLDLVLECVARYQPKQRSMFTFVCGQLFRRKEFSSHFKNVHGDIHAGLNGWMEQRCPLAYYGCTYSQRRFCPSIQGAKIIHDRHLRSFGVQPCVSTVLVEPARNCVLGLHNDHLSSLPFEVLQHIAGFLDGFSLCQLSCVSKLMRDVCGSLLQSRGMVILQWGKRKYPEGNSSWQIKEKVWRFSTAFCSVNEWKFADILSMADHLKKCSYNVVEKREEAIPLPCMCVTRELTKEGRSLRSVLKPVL
UniProt Q96C11: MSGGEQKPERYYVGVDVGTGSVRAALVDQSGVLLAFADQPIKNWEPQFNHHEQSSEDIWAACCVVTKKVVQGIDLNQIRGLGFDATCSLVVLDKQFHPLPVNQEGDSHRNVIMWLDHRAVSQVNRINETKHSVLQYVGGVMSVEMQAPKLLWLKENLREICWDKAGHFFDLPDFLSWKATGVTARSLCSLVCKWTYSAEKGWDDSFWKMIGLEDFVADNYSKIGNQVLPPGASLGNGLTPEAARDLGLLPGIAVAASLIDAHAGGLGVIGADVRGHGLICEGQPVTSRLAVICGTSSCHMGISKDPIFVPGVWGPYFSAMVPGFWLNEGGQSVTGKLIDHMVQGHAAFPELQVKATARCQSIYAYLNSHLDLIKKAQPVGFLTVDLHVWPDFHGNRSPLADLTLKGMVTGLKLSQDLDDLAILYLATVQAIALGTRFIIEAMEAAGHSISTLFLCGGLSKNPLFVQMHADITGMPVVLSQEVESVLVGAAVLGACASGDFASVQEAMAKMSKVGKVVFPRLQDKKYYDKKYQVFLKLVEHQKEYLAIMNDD
UniProt Q9BSK4: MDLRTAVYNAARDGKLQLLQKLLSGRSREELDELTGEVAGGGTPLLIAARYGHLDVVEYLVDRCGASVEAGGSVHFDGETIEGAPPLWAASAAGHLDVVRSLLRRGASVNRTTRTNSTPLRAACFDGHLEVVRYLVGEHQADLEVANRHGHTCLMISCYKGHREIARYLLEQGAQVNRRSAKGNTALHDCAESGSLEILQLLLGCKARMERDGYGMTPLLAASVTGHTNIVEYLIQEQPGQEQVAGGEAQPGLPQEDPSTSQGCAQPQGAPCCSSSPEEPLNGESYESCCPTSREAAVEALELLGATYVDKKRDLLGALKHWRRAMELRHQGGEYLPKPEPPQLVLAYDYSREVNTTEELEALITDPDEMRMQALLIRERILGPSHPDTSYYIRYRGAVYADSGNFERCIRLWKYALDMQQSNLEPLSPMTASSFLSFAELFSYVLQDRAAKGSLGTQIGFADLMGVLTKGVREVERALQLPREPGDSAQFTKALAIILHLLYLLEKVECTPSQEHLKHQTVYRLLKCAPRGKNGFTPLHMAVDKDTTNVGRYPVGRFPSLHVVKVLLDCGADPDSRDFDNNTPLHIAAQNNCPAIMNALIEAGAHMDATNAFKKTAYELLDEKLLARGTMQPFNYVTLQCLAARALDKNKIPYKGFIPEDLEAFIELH
UniProt Q5JSP0: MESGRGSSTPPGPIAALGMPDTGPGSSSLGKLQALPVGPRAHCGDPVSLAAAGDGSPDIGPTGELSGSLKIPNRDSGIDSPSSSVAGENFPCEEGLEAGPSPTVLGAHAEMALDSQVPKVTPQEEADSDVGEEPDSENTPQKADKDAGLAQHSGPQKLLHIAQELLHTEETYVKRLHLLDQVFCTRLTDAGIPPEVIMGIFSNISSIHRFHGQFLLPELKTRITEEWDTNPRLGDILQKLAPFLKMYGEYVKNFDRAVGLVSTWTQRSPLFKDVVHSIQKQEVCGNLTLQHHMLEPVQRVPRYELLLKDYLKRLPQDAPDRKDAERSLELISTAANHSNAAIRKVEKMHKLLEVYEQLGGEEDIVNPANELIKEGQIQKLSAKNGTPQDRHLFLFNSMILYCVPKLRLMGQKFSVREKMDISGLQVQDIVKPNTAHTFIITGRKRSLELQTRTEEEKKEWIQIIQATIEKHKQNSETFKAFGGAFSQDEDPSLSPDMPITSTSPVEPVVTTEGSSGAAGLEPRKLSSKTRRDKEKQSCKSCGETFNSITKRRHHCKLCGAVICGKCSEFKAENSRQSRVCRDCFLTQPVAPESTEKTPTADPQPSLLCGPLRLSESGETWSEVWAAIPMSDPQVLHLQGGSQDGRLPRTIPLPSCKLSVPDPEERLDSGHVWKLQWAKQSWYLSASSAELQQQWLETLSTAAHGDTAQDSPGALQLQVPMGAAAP

Compound: Cc1cc(ccc1-c1ccccc1)C(=O)N1CCCN(CC1)C(=O)CCl [compound 10]
Assay: probe-labelled cysteine peptide fold change vs DMSO (competition) (log2 fold change); higher = less target engagement (more negative = stronger competition)
Conditions: THP-1, incubation time: 4 h
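Note: competitive profiling in live THP-1 cells: cysteine peptides tagged with an iodoacetamide desthiobiotin (IA-DTB) probe, intensity after compound treatment relative to DMSO-treated cells.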

“FCHO1_O14526_113_CKEEVVSTLDAVQVLSGVSQLLPK (UniProt O14526)” was tested, and the “probe-labelled cysteine peptide fold change” value (10 µM) was -0.0234 and the “probe-labelled cysteine peptide fold change” value (50 µM) was 0.113.
“FER_P16591-3_23_DQLESGFGSQSCK (UniProt P16591)” was tested, and the “probe-labelled cysteine peptide fold change” value (10 µM) was -0.151 and the “probe-labelled cysteine peptide fold change” value (50 µM) was -0.535.
For “FASN_P49327_779_RGLKPSCTIIPLMK (UniProt P49327)”, the “probe-labelled cysteine peptide fold change” value (10 µM) was -0.131 and the “probe-labelled cysteine peptide fold change” value (50 µM) was -0.499.
For “FECH_P22830_403_QLTLSCPLCVNPVCR (UniProt P22830)”, the “probe-labelled cysteine peptide fold change” value (10 µM) was 0.0908 and the “probe-labelled cysteine peptide fold change” value (50 µM) was -0.0505.
In the case of “FBXO30_Q8TB52_570_FCPSIQGAK (UniProt Q8TB52)”, the “probe-labelled cysteine peptide fold change” value (10 µM) is reported as 0.133 and the “probe-labelled cysteine peptide fold change” value (50 µM) is reported as -0.0964.
With “FBXO30_Q8TB52_10_MEEELQHSHCVNCVSR (UniProt Q8TB52)” the “probe-labelled cysteine peptide fold change” value (10 µM) was -0.34 and the “probe-labelled cysteine peptide fold change” value (50 µM) was -0.361.
“FBXL17_Q9UF56_342_CLSASLVCK (UniProt Q9UF56)” was tested, and the “probe-labelled cysteine peptide fold change” value (10 µM) was 0.00792 and the “probe-labelled cysteine peptide fold change” value (50 µM) was -0.194.
For “FGGY_Q96C11_280_GHGLICEGQPVTSR (UniProt Q96C11)”, the “probe-labelled cysteine peptide fold change” value (10 µM) was 0.187 and the “probe-labelled cysteine peptide fold change” value (50 µM) was -0.101.
In the case of “FEM1A_Q9BSK4_190_GNTALHDCAESGSLEILQLLLGCK (UniProt Q9BSK4)”, the “probe-labelled cysteine peptide fold change” value (10 µM) is reported as -0.0407 and the “probe-labelled cysteine peptide fold change” value (50 µM) is reported as -0.717.
With “FAM208A_Q9UK61_830_DYEQPTCAK (UniProt Q9UK61)” the “probe-labelled cysteine peptide fold change” value (10 µM) was -0.312 and the “probe-labelled cysteine peptide fold change” value (50 µM) was -0.475.
“FASN_P49327_2010_EACPELDYFVVFSSVSCGR (UniProt P49327)” was tested, and the “probe-labelled cysteine peptide fold change” value (10 µM) was -0.109 and the “probe-labelled cysteine peptide fold change” value (50 µM) was 0.372.
In the case of “FGD3_Q5JSP0_655_TIPLPSCK (UniProt Q5JSP0)”, the “probe-labelled cysteine peptide fold change” value (10 µM) is reported as 0.0387 and the “probe-labelled cysteine peptide fold change” value (50 µM) is reported as -0.0485.
With “FBXL6_Q8N531_476_DLEQALAAFLSTPGGSHPALCSLNLR (UniProt Q8N531)” the “probe-labelled cysteine peptide fold change” value (10 µM) was 0.143 and the “probe-labelled cysteine peptide fold change” value (50 µM) was -0.11.
For “FASN_P49327_1759_CLATHGR (UniProt P49327)”, the “probe-labelled cysteine peptide fold change” value (10 µM) was 0.116 and the “probe-labelled cysteine peptide fold change” value (50 µM) was -0.0264.
